Results are given in words; binding and its absence hold for the method and conditions named.
Target: T1, HilC (Salmonella enterica) (UniProt B8Y8F2)
T1 sequence: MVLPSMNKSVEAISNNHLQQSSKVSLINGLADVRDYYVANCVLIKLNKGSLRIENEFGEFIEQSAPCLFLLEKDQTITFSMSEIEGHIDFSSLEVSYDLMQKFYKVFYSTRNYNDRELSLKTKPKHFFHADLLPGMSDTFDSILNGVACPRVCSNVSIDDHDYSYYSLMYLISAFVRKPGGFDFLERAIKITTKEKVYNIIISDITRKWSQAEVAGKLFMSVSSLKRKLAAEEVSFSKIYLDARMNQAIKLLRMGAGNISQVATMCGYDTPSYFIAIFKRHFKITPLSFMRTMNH
Test: SEC-MALS

HilE (Salmonella enterica) was tested, and the binding was “no binding (tested: 50 μM)”.
